Consider 23 targets from the supplement of paper PMC10849652.

By UniProt entry, the sequences of proteins in these tests, tags left out. Where a name states a change or a piece, a line headed by the entry shows the natural chain unless it says otherwise.
UniProt P13995: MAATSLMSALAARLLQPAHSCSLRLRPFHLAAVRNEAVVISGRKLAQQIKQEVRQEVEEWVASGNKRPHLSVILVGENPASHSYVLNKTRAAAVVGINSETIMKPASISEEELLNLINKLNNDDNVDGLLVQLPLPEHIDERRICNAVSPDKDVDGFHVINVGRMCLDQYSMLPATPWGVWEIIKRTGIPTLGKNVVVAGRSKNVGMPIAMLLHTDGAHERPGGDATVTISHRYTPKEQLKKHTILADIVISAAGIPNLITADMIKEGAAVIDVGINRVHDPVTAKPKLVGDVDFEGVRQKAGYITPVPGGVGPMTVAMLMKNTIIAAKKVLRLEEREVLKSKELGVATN
UniProt P00156: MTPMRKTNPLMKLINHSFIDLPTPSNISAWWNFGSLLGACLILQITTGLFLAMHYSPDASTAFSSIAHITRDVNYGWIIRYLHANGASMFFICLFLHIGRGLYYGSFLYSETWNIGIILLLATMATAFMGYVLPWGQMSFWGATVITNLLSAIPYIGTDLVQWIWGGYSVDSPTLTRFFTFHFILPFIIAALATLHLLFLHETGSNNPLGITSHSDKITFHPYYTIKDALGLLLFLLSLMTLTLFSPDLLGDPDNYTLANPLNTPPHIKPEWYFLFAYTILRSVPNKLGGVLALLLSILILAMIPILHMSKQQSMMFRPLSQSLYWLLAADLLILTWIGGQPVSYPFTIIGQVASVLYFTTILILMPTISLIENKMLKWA
UniProt P00846: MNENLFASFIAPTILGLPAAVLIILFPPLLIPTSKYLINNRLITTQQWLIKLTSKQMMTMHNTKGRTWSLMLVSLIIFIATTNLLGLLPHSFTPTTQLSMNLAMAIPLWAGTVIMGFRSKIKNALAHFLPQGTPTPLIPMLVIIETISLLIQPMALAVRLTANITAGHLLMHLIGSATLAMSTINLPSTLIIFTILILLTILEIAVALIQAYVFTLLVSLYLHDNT
UniProt O94832: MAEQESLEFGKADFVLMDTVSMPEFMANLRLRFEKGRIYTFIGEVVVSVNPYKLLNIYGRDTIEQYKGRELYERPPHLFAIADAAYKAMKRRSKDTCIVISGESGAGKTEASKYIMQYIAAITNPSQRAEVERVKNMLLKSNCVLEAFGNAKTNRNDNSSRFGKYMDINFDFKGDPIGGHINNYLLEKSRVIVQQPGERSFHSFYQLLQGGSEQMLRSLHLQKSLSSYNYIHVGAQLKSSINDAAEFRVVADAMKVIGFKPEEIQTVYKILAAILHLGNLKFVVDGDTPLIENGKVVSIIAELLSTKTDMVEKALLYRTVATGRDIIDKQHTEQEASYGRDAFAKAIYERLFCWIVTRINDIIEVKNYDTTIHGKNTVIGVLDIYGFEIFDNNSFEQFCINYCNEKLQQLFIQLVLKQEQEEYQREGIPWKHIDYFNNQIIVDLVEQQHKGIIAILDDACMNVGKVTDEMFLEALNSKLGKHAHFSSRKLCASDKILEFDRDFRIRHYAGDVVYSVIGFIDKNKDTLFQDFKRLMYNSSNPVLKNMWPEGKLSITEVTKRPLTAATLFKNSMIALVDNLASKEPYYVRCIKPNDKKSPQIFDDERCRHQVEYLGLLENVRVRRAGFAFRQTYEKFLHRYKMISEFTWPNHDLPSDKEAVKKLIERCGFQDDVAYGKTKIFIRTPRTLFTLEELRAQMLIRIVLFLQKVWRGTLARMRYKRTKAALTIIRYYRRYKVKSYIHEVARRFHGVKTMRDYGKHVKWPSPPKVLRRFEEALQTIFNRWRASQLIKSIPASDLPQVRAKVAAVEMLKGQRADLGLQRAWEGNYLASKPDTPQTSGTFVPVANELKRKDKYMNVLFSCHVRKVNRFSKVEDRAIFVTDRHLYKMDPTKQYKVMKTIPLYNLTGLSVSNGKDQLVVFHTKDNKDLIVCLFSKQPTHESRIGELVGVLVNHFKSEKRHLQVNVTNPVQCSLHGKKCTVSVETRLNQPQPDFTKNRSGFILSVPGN
MTHFD1, A0A384N5Y3, UniProt A0A384N5Y3, whole entry, looked up: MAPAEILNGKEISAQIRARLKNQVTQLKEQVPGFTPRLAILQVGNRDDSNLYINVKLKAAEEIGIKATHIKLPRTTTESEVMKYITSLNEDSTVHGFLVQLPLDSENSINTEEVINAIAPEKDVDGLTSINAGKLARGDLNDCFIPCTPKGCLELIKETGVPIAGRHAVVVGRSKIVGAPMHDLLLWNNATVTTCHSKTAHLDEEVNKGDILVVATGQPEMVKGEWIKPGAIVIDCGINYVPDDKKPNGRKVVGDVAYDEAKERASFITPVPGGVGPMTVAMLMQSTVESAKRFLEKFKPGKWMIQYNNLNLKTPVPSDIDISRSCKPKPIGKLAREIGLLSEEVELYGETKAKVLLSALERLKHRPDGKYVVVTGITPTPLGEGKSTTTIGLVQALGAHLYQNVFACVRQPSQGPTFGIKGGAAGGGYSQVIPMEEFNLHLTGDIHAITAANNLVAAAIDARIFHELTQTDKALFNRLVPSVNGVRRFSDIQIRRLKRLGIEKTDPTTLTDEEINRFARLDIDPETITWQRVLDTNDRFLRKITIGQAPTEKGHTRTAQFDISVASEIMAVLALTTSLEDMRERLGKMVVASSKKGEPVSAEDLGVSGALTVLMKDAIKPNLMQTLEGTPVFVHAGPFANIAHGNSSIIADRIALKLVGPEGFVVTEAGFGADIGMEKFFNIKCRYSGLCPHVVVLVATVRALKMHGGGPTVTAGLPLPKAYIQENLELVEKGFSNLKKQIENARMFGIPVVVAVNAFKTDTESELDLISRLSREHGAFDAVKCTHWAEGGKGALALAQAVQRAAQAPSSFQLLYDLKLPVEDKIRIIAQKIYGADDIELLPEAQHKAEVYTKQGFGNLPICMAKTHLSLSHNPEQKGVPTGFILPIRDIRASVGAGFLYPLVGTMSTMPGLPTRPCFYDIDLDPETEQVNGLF
UniProt Q9C0I1: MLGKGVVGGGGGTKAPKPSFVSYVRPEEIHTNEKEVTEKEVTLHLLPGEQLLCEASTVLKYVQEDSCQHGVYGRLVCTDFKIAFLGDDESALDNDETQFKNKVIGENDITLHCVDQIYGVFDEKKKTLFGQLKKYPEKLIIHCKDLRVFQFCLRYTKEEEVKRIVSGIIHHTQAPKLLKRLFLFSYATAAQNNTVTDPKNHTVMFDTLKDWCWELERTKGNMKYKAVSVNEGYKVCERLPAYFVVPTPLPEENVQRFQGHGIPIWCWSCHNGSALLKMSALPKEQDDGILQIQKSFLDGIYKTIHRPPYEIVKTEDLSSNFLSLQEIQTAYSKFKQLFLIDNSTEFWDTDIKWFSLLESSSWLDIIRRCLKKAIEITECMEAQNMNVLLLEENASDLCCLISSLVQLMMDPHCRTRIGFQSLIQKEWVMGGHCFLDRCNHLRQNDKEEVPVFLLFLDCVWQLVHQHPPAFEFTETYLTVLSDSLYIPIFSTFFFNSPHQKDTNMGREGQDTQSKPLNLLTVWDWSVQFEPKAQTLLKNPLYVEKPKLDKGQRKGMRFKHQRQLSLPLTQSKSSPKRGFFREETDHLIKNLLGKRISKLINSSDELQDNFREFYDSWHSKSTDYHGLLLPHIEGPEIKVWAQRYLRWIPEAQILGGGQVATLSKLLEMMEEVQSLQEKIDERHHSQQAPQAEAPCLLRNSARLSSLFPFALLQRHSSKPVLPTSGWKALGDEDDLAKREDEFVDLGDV
UniProt P26038, whole entry, looked up: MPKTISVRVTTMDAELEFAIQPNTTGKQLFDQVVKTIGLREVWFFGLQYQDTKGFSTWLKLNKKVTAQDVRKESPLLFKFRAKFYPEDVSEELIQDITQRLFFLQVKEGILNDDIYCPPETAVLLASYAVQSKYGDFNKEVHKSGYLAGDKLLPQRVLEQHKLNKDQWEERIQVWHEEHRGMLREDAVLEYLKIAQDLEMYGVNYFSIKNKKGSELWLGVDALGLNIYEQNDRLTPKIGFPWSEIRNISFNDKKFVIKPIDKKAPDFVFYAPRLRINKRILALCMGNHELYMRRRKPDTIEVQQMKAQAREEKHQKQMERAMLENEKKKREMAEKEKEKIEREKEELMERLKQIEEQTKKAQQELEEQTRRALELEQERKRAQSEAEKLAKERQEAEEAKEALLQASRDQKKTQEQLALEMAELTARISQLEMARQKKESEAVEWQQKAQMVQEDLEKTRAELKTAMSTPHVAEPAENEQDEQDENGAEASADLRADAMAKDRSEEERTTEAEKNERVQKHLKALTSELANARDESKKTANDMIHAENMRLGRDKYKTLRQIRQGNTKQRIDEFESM
UniProt Q15800: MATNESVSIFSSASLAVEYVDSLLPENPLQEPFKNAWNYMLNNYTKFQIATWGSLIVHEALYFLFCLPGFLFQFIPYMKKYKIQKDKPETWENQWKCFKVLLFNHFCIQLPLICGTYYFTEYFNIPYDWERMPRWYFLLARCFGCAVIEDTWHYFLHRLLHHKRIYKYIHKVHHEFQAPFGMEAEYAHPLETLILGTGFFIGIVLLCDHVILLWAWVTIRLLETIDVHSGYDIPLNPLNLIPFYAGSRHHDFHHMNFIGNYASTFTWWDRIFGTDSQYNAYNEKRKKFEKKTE
UniProt Q9Y217: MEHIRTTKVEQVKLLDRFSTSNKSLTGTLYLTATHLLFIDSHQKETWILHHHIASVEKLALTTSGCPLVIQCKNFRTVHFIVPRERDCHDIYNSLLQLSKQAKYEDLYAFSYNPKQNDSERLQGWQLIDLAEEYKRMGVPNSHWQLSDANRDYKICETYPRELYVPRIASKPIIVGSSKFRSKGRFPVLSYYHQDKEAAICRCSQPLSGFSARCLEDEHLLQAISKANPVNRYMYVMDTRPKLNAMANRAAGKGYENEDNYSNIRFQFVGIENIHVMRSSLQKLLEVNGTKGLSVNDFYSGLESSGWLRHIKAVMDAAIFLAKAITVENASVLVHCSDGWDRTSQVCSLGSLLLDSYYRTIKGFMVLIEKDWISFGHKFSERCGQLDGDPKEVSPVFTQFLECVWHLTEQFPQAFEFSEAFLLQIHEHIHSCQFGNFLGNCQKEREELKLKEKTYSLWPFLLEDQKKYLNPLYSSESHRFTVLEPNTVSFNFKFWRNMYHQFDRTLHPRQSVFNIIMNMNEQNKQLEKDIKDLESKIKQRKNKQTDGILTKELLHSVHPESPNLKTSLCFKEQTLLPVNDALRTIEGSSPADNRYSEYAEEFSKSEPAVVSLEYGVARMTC
UniProt Q9Y3D2: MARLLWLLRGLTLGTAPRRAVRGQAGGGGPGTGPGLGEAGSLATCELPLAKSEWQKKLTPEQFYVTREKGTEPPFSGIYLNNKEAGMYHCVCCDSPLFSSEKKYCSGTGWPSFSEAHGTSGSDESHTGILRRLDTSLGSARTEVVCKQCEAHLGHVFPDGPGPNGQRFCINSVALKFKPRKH
UniProt Q99417: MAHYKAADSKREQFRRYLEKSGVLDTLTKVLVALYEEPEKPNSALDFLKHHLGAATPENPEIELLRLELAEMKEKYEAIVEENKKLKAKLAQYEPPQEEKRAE
UniProt Q969V6: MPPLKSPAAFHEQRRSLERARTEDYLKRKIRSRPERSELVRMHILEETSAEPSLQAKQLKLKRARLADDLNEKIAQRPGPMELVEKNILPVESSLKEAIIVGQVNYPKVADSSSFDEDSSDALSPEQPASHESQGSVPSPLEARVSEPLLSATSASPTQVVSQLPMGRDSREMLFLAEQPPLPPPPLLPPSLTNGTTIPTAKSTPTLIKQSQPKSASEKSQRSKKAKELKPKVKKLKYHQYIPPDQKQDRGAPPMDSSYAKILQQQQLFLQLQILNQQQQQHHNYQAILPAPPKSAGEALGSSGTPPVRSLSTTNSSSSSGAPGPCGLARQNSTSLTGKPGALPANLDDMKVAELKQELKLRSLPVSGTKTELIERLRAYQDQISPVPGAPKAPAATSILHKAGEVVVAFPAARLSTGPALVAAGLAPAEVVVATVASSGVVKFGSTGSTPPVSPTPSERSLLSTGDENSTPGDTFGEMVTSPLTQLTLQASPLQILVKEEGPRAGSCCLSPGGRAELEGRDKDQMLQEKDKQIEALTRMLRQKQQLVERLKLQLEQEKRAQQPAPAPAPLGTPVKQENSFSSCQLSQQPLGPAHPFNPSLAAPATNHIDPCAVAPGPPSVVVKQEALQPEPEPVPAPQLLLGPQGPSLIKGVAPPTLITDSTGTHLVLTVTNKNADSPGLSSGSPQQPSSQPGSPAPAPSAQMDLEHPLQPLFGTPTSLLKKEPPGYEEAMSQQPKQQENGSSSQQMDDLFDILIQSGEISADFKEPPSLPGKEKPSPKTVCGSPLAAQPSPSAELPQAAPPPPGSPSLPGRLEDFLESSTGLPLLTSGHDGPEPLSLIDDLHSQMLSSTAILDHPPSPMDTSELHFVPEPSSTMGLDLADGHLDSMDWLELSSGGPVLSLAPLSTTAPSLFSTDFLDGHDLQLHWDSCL
UniProt P14649: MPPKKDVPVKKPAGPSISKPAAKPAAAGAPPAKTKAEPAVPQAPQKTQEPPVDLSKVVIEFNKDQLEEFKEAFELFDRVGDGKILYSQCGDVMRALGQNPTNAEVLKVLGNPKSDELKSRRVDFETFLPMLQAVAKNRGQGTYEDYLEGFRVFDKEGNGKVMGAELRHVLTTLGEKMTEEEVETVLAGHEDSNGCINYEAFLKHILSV

The list shows a part of the results.

Compound in the assay: Cc1cccc(CC(=O)N2CCc3c2ccc(-c2cn(C)c4ncnc(N)c24)c3F)n1
In words: log2 fold change, soluble protein after heating vs DMSO (PISA); higher = thermal stabilisation; K562 cells, 10 uM, 30 min; active = over 0.2 and 3.5 SD of the protein, either way, in both replicates (recomputed). An outline of the steps: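 Thermal stability values are relative to control samples and come from duplicates. They are expressed as log2 fold changes. For measurement, K562 cells (2×10^6 cells/mL) received 10 μM compound for 30 min, and aliquots were heated for 3 min over 48°C-58°C, pooled, and extracted at 4°C in PBS with 0.5% NP-40. Soluble protein, the supernatant after 21,000xg for 90 min, was quantified by TMTpro 16plex LC-MS/MS with equalised channel sums.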
As to MTCH1 (UniProt Q9NZJ7), the log2 fold change was inactive: 0.024.
The figure for MTHFD2 (UniProt P13995) is inactive: 0.018; for MT-CYB (UniProt P00156) it is inactive: 0.013.
The figure for MYH11 isoform 2 (UniProt P35749) is inactive: -0.016.
For MT-ATP6 (UniProt P00846), the log2 fold change is inactive: 0.086.
The figure for MYO1D (UniProt O94832) is inactive: 0.122; for MTHFD1, A0A384N5Y3 it is inactive: -0.055.
The figure for MRRF (UniProt Q96E11) is inactive: 0.051; for MTMR12 (UniProt Q9C0I1) it is inactive: -0.088; for MSN (UniProt P26038) it is inactive: 0.015.
The figure for MSMO1 (UniProt Q15800) is inactive: 0.033; for MRPS10 (UniProt P82664) it is inactive: 0.119.
For MTMR6 (UniProt Q9Y217), the log2 fold change is inactive: 0.035.
The figure for MUCL1 (UniProt Q96DR8) is inactive: -0.463; for MRPS2 (UniProt Q9Y399) it is inactive: 0.175; for MRPS15 (UniProt P82914) it is inactive: 0.159.
For MRPS27 isoform 2 (UniProt Q92552), the log2 fold change was inactive: 0.099.
The figure for MSRB2 (UniProt Q9Y3D2) is inactive: -0.002; for MYCBP (UniProt Q99417) it is inactive: -0.049.
The figure for MRPS11 (UniProt P82912) is inactive: -0.033; for MRPS33 (UniProt Q9Y291) it is inactive: 0.125; for MRTFA (UniProt Q969V6) it is inactive: -0.078.
The figure for MYL6B (UniProt P14649) is inactive: -0.011.
